Measured values as given in US20200216493A1 (FERRING B.V., priority 2016, published 2020).

Assay: general procedure: Fmoc solid-phase peptide synthesis; HBTU/TEA; DIC/HOBt; HBTU/N-methylmorpholine
Conditions: whole synthesis; for isolated yield: scale of the general procedure 1-3 mmol, 0.1-0.3 mmol, 0.2 mmol
[1] = overall yield from starting resin, TFA salt

| Substance | isolated mass (Di-TFA salt) [mg] | isolated yield (from starting resin, TFA salt) [%] | isolated yield [1] [%] | also measured |
| --- | --- | --- | --- | --- |
| H-D-MePhe-Ile-Ser-D-Gln-D-aIle-Ile-Ser-c(D-Thr-Ala-Lys(Bn)-Ile) | 29 | 11 | – | – |
| H-D-MePhe-Ile-lNal-D-Gln-D-aIle-Ile-Ser-c(D-Thr-Ala-Har-Ile) | 20 | 7 | – | – |
| H-D-Me2Nal-Ile-Ser-D-Gln-D-aIle-Ile-Ser-c(D-Thr-Ala-Har-Ile) | 108 | 35 | – | – |
| H-D-MePhe(4-Cl)-Ile-Ser-D-Gln-D-aIle-Ile-Ser-c(D-Thr-Ala-Har-Ile) | 143 | 31 | – | – |
| H-D-Phe(4-Cl)-Ile-Ser-D-Gln-D-aIle-Ile-Ser-c(D-Thr-Ala-Lys-Ile) | 12.2 | – | – | isolated mass (TFA salt): 44.4 mg; isolated yield (overall yield from starting resin, Di-TFA salt): 4% |
| H-D-MeTyr(Me)-Ile-Ser-D-Gln-D-aIle-Ile-Ser-c(D-Thr-Ala-Har-Ile) | 54 | 18 | – | – |
| H-D-MePhe-Ile-Ser-D-Lys-D-aIle-Ile-Ser-c(D-Thr-Ala-Lys-Ile) | – | – | 3 | isolated mass (scale 0.2 mmol, TFA salt): 26.1 mg; isolated mass (tri-TFA salt): 9.7 mg |
| H-D-MePhe-Ile-Ser-D-Gln-D-aIle-Ile-Ser-c(D-Thr-Ala-Glu(NH(CH2)2NMe2)-Ile) | 11.7 | – | 2 | isolated mass (scale 0.32 mmol, TFA salt): 88 mg |
| H-D-MePhe-Ile-Ser-D-Gln-D-aIle-Ile-Ser-c(D-Thr-Ala-Har-Ile) | 38 | – | 10 | isolated mass (scale 0.5 mmol, TFA salt): 161 mg |
